The supplement of paper PMC10849652
The list shows a part of the results.

Protein sequences, listed by entry. Tags and fused reporters are not part of them. Lines headed by an entry give the natural chain unless they say otherwise; changes in a name come on top.
UniProt O15270: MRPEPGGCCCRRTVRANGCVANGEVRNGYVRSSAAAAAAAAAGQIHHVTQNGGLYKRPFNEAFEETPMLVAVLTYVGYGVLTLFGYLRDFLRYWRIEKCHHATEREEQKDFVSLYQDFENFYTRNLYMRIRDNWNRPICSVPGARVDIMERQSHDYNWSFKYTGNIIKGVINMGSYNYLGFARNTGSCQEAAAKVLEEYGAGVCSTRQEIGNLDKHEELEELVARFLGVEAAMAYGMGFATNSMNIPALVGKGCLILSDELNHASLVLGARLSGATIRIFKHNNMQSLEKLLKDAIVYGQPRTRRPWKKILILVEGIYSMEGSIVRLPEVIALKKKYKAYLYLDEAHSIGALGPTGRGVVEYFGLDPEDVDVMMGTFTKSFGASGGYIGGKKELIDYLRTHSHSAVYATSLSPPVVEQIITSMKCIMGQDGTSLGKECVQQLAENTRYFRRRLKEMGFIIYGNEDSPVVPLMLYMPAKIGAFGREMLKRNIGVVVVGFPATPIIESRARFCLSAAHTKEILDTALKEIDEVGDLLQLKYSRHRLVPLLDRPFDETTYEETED
UniProt Q07955, whole entry, looked up: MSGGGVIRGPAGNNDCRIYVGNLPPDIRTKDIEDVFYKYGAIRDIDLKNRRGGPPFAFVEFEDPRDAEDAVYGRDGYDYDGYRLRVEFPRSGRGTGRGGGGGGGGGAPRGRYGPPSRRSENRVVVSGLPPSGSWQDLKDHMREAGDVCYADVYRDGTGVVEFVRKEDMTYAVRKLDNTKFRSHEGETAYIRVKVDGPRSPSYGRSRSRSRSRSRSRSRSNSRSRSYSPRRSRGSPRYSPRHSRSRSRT
UniProt Q9P2P6: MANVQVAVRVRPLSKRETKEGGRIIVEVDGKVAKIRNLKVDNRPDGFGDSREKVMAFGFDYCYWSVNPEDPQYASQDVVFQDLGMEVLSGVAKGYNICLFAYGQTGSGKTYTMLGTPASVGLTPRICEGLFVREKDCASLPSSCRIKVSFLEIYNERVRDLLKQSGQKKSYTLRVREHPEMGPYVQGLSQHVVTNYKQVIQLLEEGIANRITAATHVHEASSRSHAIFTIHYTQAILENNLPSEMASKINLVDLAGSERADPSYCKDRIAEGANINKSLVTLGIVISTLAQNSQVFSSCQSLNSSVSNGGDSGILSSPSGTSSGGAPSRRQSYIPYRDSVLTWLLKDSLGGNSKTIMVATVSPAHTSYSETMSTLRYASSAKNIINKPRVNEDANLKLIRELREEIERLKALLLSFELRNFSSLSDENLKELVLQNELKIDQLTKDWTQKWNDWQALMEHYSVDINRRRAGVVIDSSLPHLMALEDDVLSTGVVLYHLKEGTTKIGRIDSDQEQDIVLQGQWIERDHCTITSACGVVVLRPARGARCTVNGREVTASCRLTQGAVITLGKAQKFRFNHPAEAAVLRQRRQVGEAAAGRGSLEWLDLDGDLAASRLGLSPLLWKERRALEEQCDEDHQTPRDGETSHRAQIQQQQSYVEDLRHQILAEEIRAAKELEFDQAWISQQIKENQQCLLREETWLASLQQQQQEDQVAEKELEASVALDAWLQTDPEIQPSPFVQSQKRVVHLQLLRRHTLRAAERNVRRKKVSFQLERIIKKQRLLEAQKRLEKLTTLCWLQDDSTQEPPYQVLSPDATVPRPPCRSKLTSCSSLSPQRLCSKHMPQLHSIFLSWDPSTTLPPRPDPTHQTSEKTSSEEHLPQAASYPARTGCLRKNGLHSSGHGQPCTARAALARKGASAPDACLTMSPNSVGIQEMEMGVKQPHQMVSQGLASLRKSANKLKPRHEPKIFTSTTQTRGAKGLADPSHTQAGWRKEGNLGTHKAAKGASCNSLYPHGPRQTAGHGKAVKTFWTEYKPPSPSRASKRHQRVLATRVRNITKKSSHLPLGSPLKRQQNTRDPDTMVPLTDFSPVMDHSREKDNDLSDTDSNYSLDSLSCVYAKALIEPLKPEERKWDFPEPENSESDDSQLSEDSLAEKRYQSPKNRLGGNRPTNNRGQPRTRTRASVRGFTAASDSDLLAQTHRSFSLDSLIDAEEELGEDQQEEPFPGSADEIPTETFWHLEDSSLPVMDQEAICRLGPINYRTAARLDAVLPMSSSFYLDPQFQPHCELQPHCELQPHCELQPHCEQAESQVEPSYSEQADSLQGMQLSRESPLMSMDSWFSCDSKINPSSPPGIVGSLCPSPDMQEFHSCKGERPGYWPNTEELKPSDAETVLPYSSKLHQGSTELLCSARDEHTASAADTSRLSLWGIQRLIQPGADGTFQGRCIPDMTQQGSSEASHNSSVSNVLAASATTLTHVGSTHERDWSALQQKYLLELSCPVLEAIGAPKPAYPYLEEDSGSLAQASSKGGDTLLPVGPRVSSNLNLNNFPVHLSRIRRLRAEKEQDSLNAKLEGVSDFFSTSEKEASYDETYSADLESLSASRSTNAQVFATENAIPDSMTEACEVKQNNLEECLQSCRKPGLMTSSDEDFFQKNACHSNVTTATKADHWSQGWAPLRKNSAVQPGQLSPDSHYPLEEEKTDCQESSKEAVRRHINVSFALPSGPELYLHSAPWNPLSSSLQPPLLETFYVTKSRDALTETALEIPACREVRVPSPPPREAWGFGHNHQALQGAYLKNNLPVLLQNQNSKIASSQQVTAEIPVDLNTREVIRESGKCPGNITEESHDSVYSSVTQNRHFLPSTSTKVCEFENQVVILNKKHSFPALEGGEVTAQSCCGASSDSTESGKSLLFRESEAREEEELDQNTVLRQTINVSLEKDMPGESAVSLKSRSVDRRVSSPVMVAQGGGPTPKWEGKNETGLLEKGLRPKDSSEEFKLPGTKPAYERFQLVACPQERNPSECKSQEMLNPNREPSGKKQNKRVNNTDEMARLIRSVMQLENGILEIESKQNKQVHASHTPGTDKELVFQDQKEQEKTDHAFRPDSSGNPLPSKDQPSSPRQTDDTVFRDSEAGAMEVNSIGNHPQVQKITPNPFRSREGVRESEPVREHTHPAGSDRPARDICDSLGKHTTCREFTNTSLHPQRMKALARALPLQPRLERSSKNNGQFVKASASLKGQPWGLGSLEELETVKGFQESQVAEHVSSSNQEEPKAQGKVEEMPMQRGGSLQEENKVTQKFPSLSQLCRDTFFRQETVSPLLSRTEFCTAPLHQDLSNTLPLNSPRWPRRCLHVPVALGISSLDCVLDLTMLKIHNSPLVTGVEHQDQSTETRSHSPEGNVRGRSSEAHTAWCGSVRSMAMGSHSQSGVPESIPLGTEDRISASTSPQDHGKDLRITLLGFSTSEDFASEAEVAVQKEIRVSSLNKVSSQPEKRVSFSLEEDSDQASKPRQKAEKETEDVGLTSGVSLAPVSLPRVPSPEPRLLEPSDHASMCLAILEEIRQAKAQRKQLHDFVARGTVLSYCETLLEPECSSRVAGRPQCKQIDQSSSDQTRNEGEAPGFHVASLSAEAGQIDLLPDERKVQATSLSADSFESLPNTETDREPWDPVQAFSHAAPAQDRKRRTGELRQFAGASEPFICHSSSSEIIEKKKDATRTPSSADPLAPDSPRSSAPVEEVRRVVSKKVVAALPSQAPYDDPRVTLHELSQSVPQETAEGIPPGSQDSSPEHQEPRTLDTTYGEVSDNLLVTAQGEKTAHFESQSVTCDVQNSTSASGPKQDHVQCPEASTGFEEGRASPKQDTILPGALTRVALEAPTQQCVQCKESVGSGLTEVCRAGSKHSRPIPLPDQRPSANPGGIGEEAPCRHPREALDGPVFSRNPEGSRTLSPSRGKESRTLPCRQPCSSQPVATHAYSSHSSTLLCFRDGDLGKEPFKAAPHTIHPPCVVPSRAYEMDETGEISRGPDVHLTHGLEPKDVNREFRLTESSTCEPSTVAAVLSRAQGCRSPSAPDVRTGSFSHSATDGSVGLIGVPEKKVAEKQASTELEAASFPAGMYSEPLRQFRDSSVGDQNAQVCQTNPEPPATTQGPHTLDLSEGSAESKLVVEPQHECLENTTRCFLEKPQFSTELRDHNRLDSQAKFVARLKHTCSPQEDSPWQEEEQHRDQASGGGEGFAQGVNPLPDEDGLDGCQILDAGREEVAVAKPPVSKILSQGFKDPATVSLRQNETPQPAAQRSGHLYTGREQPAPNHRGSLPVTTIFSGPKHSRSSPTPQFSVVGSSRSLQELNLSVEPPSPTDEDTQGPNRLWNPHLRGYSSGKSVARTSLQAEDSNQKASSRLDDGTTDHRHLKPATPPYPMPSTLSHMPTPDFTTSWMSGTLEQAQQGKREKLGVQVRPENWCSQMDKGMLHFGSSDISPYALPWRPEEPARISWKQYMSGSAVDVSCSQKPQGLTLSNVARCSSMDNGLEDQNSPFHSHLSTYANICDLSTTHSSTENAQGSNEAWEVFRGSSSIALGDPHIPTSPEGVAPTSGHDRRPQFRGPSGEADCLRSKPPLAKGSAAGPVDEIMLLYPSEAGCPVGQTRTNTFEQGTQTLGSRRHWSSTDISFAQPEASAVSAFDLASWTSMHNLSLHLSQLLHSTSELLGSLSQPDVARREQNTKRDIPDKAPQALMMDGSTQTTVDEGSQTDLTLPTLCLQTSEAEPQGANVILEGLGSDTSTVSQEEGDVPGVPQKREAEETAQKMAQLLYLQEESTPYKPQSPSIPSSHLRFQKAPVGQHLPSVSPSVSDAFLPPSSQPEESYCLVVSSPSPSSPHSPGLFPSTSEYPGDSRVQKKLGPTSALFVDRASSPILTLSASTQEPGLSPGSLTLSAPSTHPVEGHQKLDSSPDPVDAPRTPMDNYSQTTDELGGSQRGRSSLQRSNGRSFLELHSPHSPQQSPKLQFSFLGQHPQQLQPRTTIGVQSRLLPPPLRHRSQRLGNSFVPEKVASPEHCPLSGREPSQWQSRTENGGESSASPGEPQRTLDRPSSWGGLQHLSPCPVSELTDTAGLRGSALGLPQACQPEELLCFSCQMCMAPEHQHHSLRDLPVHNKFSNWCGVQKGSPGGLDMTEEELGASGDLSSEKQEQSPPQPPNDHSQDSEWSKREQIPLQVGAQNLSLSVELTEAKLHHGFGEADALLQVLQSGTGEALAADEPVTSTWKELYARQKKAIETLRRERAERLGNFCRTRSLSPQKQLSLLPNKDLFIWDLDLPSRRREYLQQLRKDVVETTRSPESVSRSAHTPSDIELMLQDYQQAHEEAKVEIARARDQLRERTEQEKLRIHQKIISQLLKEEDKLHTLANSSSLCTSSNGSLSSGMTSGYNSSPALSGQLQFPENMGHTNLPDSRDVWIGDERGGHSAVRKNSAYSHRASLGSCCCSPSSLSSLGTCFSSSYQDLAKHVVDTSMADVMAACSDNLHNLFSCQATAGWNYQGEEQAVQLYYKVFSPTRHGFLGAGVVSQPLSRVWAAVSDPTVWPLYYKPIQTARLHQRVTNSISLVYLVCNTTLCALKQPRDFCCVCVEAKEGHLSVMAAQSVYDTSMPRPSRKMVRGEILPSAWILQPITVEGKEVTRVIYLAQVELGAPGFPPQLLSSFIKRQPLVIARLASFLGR
UniProt Q01130: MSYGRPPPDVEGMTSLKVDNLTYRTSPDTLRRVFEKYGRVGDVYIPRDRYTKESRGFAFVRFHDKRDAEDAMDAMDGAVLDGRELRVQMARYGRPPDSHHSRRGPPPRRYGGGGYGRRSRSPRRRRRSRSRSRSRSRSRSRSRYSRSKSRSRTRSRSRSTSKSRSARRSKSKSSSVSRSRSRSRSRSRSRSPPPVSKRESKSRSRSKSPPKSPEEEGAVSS
UniProt Q9BVQ7: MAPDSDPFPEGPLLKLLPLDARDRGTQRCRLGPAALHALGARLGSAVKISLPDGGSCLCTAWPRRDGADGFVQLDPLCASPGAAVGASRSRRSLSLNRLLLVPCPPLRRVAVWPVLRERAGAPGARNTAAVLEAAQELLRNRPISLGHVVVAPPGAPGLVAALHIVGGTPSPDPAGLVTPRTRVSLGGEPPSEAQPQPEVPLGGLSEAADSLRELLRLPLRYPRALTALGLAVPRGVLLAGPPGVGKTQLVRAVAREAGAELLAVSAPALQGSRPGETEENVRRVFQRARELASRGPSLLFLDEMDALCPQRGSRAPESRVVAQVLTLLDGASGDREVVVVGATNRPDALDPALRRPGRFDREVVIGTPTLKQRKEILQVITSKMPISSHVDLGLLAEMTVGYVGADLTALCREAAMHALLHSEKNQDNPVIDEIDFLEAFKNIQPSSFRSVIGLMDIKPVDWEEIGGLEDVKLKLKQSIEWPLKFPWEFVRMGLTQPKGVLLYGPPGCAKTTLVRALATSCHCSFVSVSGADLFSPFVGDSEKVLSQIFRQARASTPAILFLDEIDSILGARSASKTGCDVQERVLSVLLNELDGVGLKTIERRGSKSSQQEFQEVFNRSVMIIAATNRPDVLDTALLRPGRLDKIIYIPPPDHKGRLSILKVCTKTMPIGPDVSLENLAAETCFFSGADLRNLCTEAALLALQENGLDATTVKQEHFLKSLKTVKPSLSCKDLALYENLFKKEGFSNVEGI

Experiments:
Test in all cases: log2 fold change, soluble protein after heating vs DMSO (PISA); higher = thermal stabilisation; K562 cells, 10 uM, 30 min; active = over 0.2 and 3.5 SD of the protein, either way, in both replicates (recomputed)
[1] = compound: CC[C@@H]1C(=O)N(C)c2cnc(Nc3ccc(C(=O)NC4CCN(C)CC4)cc3OC)nc2N1C1CCCC1
How it was run: (§1)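 K562 cells at 2×10^6 cells/mL were treated with 10 μM compound for 30 min. Aliquots were heated for 3 min across 48°C-58°C, pooled, and extracted in PBS with 0.5% NP-40 at 4°C; soluble protein was the supernatant after 21,000xg for 90 min. Soluble protein was quantified by TMTpro 16plex LC-MS/MS with channel sums equalised, and reported as log2 fold change in thermal stability against DMSO controls, with values from duplicates.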

[2] = compound: CC[C@@H]1C(=O)N(C)c2cnc(Nc3ccc(C(=O)N[C@H]4CC[C@H](N5CCN(CC6CC6)CC5)CC4)cc3OC)nc2N1C(C)C [volasertib]
How it was run: as §1

[3] = compound: CC[C@H](C)N1C=C(C2=C(C=C(C=C21)C3=CN=C(C=C3)N4CCNCC4)C(=O)NCC5=C(C=C(NC5=O)C)C)C
How it was run: as §1

[4] = compound: CC[C@H](C)[C@@H](C(=O)N[C@@H]([C@@H](C)O)C(=O)N[C@@H](CC(C)C)C(=O)[C@]1(CO1)C)NC(=O)[C@H]([C@@H](C)CC)N(C)C(=O)C [epoxomicin]
How it was run: as §1

[5] = compound: CCn1c(C(=O)N(C2CC2)C2CC2)cc2c3c(ncn3C)c(Nc3cc(C)n(C)n3)nc21
How it was run: as §1

[6] = compound: CCn1cc(-c2ccnc3[nH]c(-c4cccc(CN(C)C)c4)cc23)c(-c2ccc(NC(=O)N(C)C)cc2)n1
How it was run: as §1

[7] = compound: CN(C)CC(=O)Nc1ccc2[nH]c(=O)c3ccccc3c2c1
How it was run: as §1

[8] = compound: CN(CCOC1=CC=C(C=C1)C[C@H]2C(=O)NC(=O)S2)C3=CC=CC=N3 (racemic) [rosiglitazone]
How it was run: as §1

[9] = compound: CN1C2=C(C3=C1C(=O)N(N=C3)CC4=CC(=CC=C4)N)SC(=C2)S(=O)C
How it was run: as §1

[10] = compound: CN1CCC(CNc2ccc3ncc(-c4cccc(OC(F)(F)F)c4)n3n2)CC1
How it was run: as §1

Measured: log2 fold change

SPTLC1 (UniProt O15269)
inactive: [1] -0.001 | [2] -0.178 | [3] 0.135 | [4] 0.043 | [5] -0.03 | [6] -0.079 | [7] 0.045 | [8] 0.018 | [9] -0.013 | [10] 0.018

SPTLC2 (UniProt O15270)
inactive: [1] 0.055 | [2] -0.044 | [3] -0.014 | [4] 0.013 | [5] 0 | [6] -0.043 | [7] 0.013 | [8] 0.028 | [9] -0.056 | [10] -0.012

SRGN (UniProt P10124)
inactive: [1] 0.229 | [2] 0.093 | [3] -0.012 | [4] -0.097 | [5] -0.036 | [6] -0.076 | [7] -0.276 | [8] -0.035 | [9] 0.001 | [10] 0.2

SRP14 (UniProt P37108)
inactive: [1] 0.165 | [2] 0.354 | [3] -0.033 | [4] -0.263 | [5] -0.004 | [6] 0.208 | [7] -0.15 | [8] -0.123 | [9] 0.29 | [10] 0.266

SQLE (UniProt Q14534)
inactive: [1] 0.082 | [2] 0.038 | [3] 0.06 | [4] 0.172 | [5] -0.015 | [6] -0.04 | [7] 0.101 | [8] 0.041 | [9] -0.073 | [10] 0.047

SPTA1 (UniProt P02549)
inactive: [1] 0.022 | [2] -0.277 | [3] 0.055 | [4] -0.069 | [5] -0.047 | [6] 0.13 | [7] 0.026 | [8] -0.005 | [9] 0.302 | [10] -0.07

2 records drawn at random from the list so far:
SPTLC1 (UniProt O15269)
inactive: [1] -0.001 | [2] -0.178 | [3] 0.135 | [4] 0.043 | [5] -0.03 | [6] -0.079 | [7] 0.045 | [8] 0.018 | [9] -0.013 | [10] 0.018

SRGN (UniProt P10124)
inactive: [1] 0.229 | [2] 0.093 | [3] -0.012 | [4] -0.097 | [5] -0.036 | [6] -0.076 | [7] -0.276 | [8] -0.035 | [9] 0.001 | [10] 0.2

Later entries

SRSF1 (UniProt Q07955)
inactive: [1] 0.225 | [2] 0.264 | [3] -0.024 | [4] -0.234 | [5] -0.032 | [6] 0.155 | [7] -0.136 | [8] -0.13 | [9] 0.191 | [10] 0.212

SPCS1, A0A5F9YFS9
inactive: [1] -0.189 | [2] -0.052 | [3] 0.002 | [4] -0.122 | [5] 0.033 | [6] -0.019 | [7] 0.027 | [8] 0.006 | [9] -0.159 | [10] 0.033

SSBP3 (UniProt Q9BWW4)
inactive: [1] -0.041 | [2] 0.036 | [3] -0.027 | [4] 0.1 | [5] 0.016 | [6] -0.037 | [7] 0.085 | [8] -0.074 | [9] 0.097 | [10] 0.098

STIM1 (UniProt Q13586)
inactive: [1] -0.116 | [2] -0.206 | [3] 0.025 | [4] 0.028 | [6] 0.023 | [7] 0.007 | [9] -0.047 | [10] -0.195

SRSF9 (UniProt Q13242)
inactive: [1] 0.189 | [2] 0.414 | [3] -0.004 | [4] -0.421 | [6] 0.323 | [7] -0.106 | [9] 0.506 | [10] 0.364

SRA1 (UniProt Q9HD15)
inactive: [1] 0.018 | [2] -0.034 | [3] -0.011 | [4] 0.03 | [5] -0.022 | [6] -0.001 | [7] -0.008 | [8] 0.029 | [9] -0.074 | [10] -0.064

SPPL2B (UniProt Q8TCT7)
inactive: [1] 0.039 | [2] 0 | [3] -0.003 | [4] -0.076 | [6] 0.028 | [7] 0.035 | [9] 0.033 | [10] -0.228

STAM2 (UniProt O75886)
inactive: [1] -0.039 | [3] 0.063 | [4] 0.039 | [6] -0.056 | [7] 0 | [9] -0.033 | [10] -0.128
active: [2] -0.297

SPARC (UniProt P09486)
inactive: [1] 0.103 | [2] 0.015 | [3] -0.012 | [4] -0.08 | [5] 0.065 | [6] -0.025 | [7] 0.05 | [8] -0.028 | [9] 0.119 | [10] 0.055

SPNS1 (UniProt Q9H2V7)
inactive: [1] -0.006 | [2] -0.058 | [3] -0.018 | [4] -0.072 | [5] 0.008 | [6] -0.031 | [7] 0.009 | [8] 0.023 | [9] 0.01 | [10] -0.175

SPG11 (UniProt Q96JI7)
active: [10] -1.24
inactive: [1] 0.155 | [2] -0.294 | [3] 0.017 | [4] -0.085 | [6] 0.141 | [7] -0.216 | [9] 0.367

SRSF10 (UniProt O75494)
inactive: [1] 0.141 | [2] 0.274 | [3] -0.197 | [4] -0.408 | [6] 0.276 | [7] -0.127 | [9] 0.498 | [10] 0.237

STK26 (UniProt Q9P289)
inactive: [1] -0.017 | [2] -0.062 | [3] 0.018 | [4] 0.084 | [6] -0.117 | [7] -0.033 | [9] 0.014 | [10] -0.191

SPEN (UniProt Q96T58)
inactive: [1] -0.065 | [2] 0.051 | [3] -0.013 | [4] 0.073 | [5] -0.023 | [6] 0.019 | [7] -0.043 | [8] 0.033 | [9] -0.18 | [10] 0.042

SRRD (UniProt Q9UH36)
inactive: [1] -0.055 | [2] -0.042 | [3] 0.127 | [4] -0.068 | [5] -0.057 | [8] 0.014

STARD3NL (UniProt O95772)
inactive: [1] 0.037 | [2] -0.022 | [3] -0.036 | [4] -0.085 | [6] -0.014 | [7] -0.068 | [9] -0.058
active: [10] -0.371

ST13 (UniProt P50502)
inactive: [1] -0.014 | [2] 0.019 | [3] 0.042 | [4] 0.011 | [5] 0.039 | [6] -0.09 | [7] 0.021 | [8] 0.049 | [9] -0.078 | [10] -0.053

STARD9 (UniProt Q9P2P6)
inactive: [1] -0.024 | [2] 0.238 | [3] -0.029 | [4] 0.022 | [6] 0.008 | [7] 0.075 | [10] -0.098
active: [9] 0.507

SPHK1 isoform 2 (UniProt Q9NYA1)
inactive: [1] -0.045 | [2] -0.056 | [3] -0.052 | [4] 0.036 | [5] -0.005 | [6] -0.093 | [7] 0.002 | [8] 0.098 | [9] -0.171 | [10] -0.009

SRSF4 (UniProt Q08170)
inactive: [1] 0.091 | [2] -0.001 | [3] 0.011 | [4] -0.175 | [6] 0.115 | [7] -0.09 | [9] 0.205 | [10] 0.087

STIM2 isoform 2 (UniProt Q9P246)
inactive: [1] -0.114 | [2] -0.426 | [3] -0.044 | [4] 0.092 | [5] 0.044 | [7] 0

SRSF11 (UniProt Q05519)
inactive: [1] -0.088 | [3] 0.074 | [4] 0.047 | [6] -0.072 | [7] 0.02 | [9] -0.018 | [10] 0.128
active: [2] -0.311

SPINDOC (UniProt Q9BUA3)
inactive: [1] -0.131 | [2] -0.178 | [3] -0.243 | [4] 0.071 | [6] 0.105 | [7] 0.074 | [9] -0.222 | [10] -0.02

SRC isoform 2 (UniProt P12931)
inactive: [1] 0.079 | [2] -0.03 | [3] 0.108 | [4] -0.16 | [6] -0.066 | [7] -0.032 | [9] -0.002 | [10] -0.149

SPTBN2 (UniProt O15020)
inactive: [1] 0.091 | [2] -0.188 | [3] 0.009 | [4] -0.043 | [5] -0.042 | [6] 0.057 | [7] 0.04 | [8] -0.013 | [9] 0.061 | [10] 0.093

SRSF2 (UniProt Q01130)
inactive: [1] 0.087 | [2] 0.134 | [3] -0.027 | [4] -0.069 | [6] 0.022 | [7] -0.082 | [9] 0.045 | [10] 0.054

SPATA5L1 (UniProt Q9BVQ7)
inactive: [1] 0.026 | [2] 0.051 | [3] -0.015 | [4] -0.015 | [5] -0.008 | [6] 0.044 | [7] -0.039 | [8] -0.028 | [9] -0.01 | [10] 0.075
